The reference is the same well before dosing, and untreated signal decays as well.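 The tumor cells are basal-like or mesenchymal-like triple-negative breast cancer lines cultured without fibroblasts. Reduced red signal indicates lost mitochondrial integrity, serving as a proxy for apoptotic death.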 Numbered stars: 1 amine (or outer) side, 2 acyl side, 3 side chain; on linkers, the order of the positions; unused ones are H or OH. Bridge positions count the residues as written; N and C are the ends. Square brackets hold non-standard residues; d marks the D form. Peptide text beside a SMILES is read from it. I, II: the chains in the order shown. Actinocin(9to1) = Cc1c2oc3c(C)ccc(C(=O)[*:1])c3nc-2c(C(=O)[*:2])c(N)c1=O; NMeV = CN[C@H](C(=O)O)C(C)C; Sar = CNCC(=O)O
Key:
Test in all cases: relative JC-1 red fluorescence (viability) vs pre-drug, monoculture (fraction); higher = more viable cancer cells
Settings in all cases: coculture fibroblast: none (monoculture)
Hs578T = system: Hs578T
Procedure: (§1)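 JC-1 labelled TNBC cells grown in monoculture (density kept equal with unlabelled cancer cells) in 384-well plates in FluoroBrite medium, treated with one of 42 anticancer drugs at 0.1, 1, 10 or 100 uM. JC-1 red fluorescence (mitochondrial integrity, surrogate of apoptotic death) was read by plate reader every 8 h for 72 h. Values are normalised to each well's pre-drug value, with background from alamethicin. The stock of one drug was tenfold lower, so its dose labels may be too high. Monoculture values are repeated alongside each fibroblast plate and are averaged here.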

MDAMB231 = system: MDAMB231
Procedure: as §1

BT20 = system: BT20
Procedure: as §1

MDAMB468 = system: MDAMB468
Procedure: as §1

O=C(O)C(=O)O.[NH-][C@@H]1CCCC[C@H]1[NH-].[Pt+2] [Oxaliplatin]
relative JC-1 red fluorescence
Settings | 8 h | 16 h | 24 h | 32 h | 40 h | 48 h | 56 h | 64 h | 72 h
BT20, 0.1 µM | 0.962 | 0.868 | 0.87 | 0.809 | 0.789 | 0.783 | 0.768 | 0.772 | 0.768
BT20, 1 µM | 0.9352 | 0.877 | 0.778 | 0.725 | 0.684 | 0.654 | 0.635 | 0.612 | 0.6
BT20, 10 µM | 0.915 | 0.793 | 0.719 | 0.651 | 0.617 | 0.584 | 0.556 | 0.534 | 0.519
BT20, 100 µM | 0.962 | 0.883 | 0.906 | 0.891 | 0.845 | 0.833 | 0.815 | 0.821 | 0.805
Hs578T, 0.1 µM | 0.853 | 0.719 | 0.644 | 0.566 | 0.508 | 0.484 | 0.451 | 0.448 | 0.444
Hs578T, 1 µM | 0.831 | 0.721 | 0.633 | 0.556 | 0.499 | 0.469 | 0.435 | 0.425 | 0.412
Hs578T, 10 µM | 0.896 | 0.712 | 0.713 | 0.641 | 0.607 | 0.5872 | 0.566 | 0.5705 | 0.5641
Hs578T, 100 µM | 0.88689 | 0.815 | 0.736 | 0.677 | 0.634 | 0.613 | 0.604 | 0.603 | 0.597
MDAMB231, 0.1 µM | 0.7317 | 0.676 | 0.841 | 0.703 | 0.683 | 0.711 | 0.7095 | 0.772 | 0.7821
MDAMB231, 1 µM | 0.738 | 0.742 | 0.609 | 0.619 | 0.581 | 0.561 | 0.526 | 0.534 | 0.533
MDAMB231, 10 µM | 0.8497 | 0.69791 | 0.87752 | 0.7403 | 0.72 | 0.74 | 0.738 | 0.803 | 0.815
MDAMB231, 100 µM | 0.753 | 0.749 | 0.624 | 0.628 | 0.594 | 0.563 | 0.529 | 0.534 | 0.533
MDAMB468, 0.1 µM | 0.828 | 0.787 | 0.792 | 0.762 | 0.736 | 0.761 | 0.754 | 0.753 | 0.759
MDAMB468, 1 µM | 0.893 | 0.845 | 0.787 | 0.708 | 0.666 | 0.6413 | 0.621 | 0.6 | 0.59
MDAMB468, 10 µM | 0.849 | 0.7404 | 0.713 | 0.64 | 0.6 | 0.582 | 0.547 | 0.519 | 0.505
MDAMB468, 100 µM | 0.93 | 0.807 | 0.698 | 0.596 | 0.534 | 0.508 | 0.474 | 0.459 | 0.443

Cc1c2oc3c(C)ccc(C(=O)N[C@@H]4C(=O)N[C@H](C(C)C)C(=O)N5CCC[C@H]5C(=O)N(C)CC(=O)N(C)[C@@H](C(C)C)C(=O)O[C@@H]4C)c3nc-2c(C(=O)N[C@@H]2C(=O)N[C@H](C(C)C)C(=O)N3CCC[C@H]3C(=O)N(C)CC(=O)N(C)[C@@H](C(C)C)C(=O)O[C@@H]2C)c(N)c1=O [Dactinomycin] (I: T[dV]P[Sar][NMeV] / II: T[dV]P[Sar][NMeV]; ester I:1-I:C, II:1-II:C; linker I:N-II:N via Actinocin(9to1))
relative JC-1 red fluorescence
Settings | 8 h | 16 h | 24 h | 32 h | 40 h | 48 h | 56 h | 64 h | 72 h
BT20, 0.1 µM | 0.929 | 0.893 | 0.883 | 0.818 | 0.786 | 0.787 | 0.772 | 0.7833 | 0.7749
BT20, 1 µM | 0.9112 | 0.841 | 0.857 | 0.782 | 0.766 | 0.775 | 0.754 | 0.769 | 0.773
BT20, 10 µM | 0.891 | 0.823 | 0.8444 | 0.744 | 0.701 | 0.7083 | 0.694 | 0.712 | 0.721
BT20, 100 µM | 0.848 | 0.6976 | 0.637 | 0.534 | 0.496 | 0.492 | 0.472 | 0.475 | 0.463
Hs578T, 0.1 µM | 0.806 | 0.6951 | 0.672 | 0.569 | 0.52 | 0.489 | 0.469 | 0.457 | 0.4567
Hs578T, 1 µM | 0.797 | 0.66 | 0.619 | 0.527 | 0.484 | 0.482 | 0.468 | 0.484 | 0.484
Hs578T, 10 µM | 0.773 | 0.661 | 0.6476 | 0.5564 | 0.514 | 0.505 | 0.498 | 0.5101 | 0.5079
Hs578T, 100 µM | 0.745 | 0.6291 | 0.568 | 0.464 | 0.424 | 0.415 | 0.403 | 0.412 | 0.41
MDAMB231, 0.1 µM | 0.765 | 0.755 | 0.857 | 0.768 | 0.741 | 0.756 | 0.765 | 0.834 | 0.856
MDAMB231, 1 µM | 0.671 | 0.612 | 0.626 | 0.601 | 0.573 | 0.576 | 0.569 | 0.622 | 0.636
MDAMB231, 10 µM | 0.761 | 0.721 | 0.79 | 0.763 | 0.751 | 0.77 | 0.812 | 0.804 | 0.79373
MDAMB231, 100 µM | 0.667 | 0.606 | 0.536 | 0.518 | 0.465 | 0.428 | 0.409 | 0.426 | 0.417
MDAMB468, 0.1 µM | 0.7987 | 0.7712 | 0.78 | 0.745 | 0.758 | 0.803 | 0.807 | 0.806 | 0.803
MDAMB468, 1 µM | 0.778 | 0.568 | 0.471 | 0.388 | 0.35 | 0.345 | 0.313 | 0.304 | 0.305
MDAMB468, 10 µM | 0.675 | 0.5363 | 0.477 | 0.415 | 0.375 | 0.381 | 0.359 | 0.361 | 0.363
MDAMB468, 100 µM | 0.714 | 0.515 | 0.46 | 0.388 | 0.335 | 0.332 | 0.306 | 0.301 | 0.289

C=C1C[C@@H]2[C@H](CC[C@]3(C)C(=O)CC[C@@H]23)[C@@]2(C)C=CC(=O)C=C12 [Exemestane]
relative JC-1 red fluorescence
Settings | 8 h | 16 h | 24 h | 32 h | 40 h | 48 h | 56 h | 64 h | 72 h
BT20, 0.1 µM | 0.9443 | 0.878 | 0.7965 | 0.725 | 0.68 | 0.644 | 0.622 | 0.597 | 0.593
BT20, 1 µM | 0.901 | 0.841 | 0.772 | 0.722 | 0.672 | 0.648 | 0.618 | 0.6 | 0.583
BT20, 10 µM | 0.9495 | 0.907 | 0.871 | 0.841 | 0.845 | 0.845 | 0.838 | 0.835 | 0.775
BT20, 100 µM | 0.90912 | 0.8529 | 0.854 | 0.774 | 0.754 | 0.7362 | 0.704 | 0.6922 | 0.6832
Hs578T, 0.1 µM | 0.8381 | 0.767 | 0.687 | 0.655 | 0.619 | 0.593 | 0.561 | 0.548 | 0.53
Hs578T, 1 µM | 0.8239 | 0.7354 | 0.673 | 0.598 | 0.557 | 0.539 | 0.511 | 0.507 | 0.49
Hs578T, 10 µM | 0.8511 | 0.781 | 0.72 | 0.688 | 0.644 | 0.621 | 0.599 | 0.586 | 0.57
Hs578T, 100 µM | 0.867 | 0.785 | 0.6953 | 0.625 | 0.562 | 0.518 | 0.47 | 0.452 | 0.43
MDAMB231, 0.1 µM | 0.7412 | 0.675 | 0.672 | 0.624 | 0.59 | 0.597 | 0.568 | 0.594 | 0.594
MDAMB231, 1 µM | 0.737 | 0.726 | 0.61 | 0.607 | 0.57 | 0.55 | 0.508 | 0.52 | 0.517
MDAMB231, 10 µM | 0.7816 | 0.795 | 0.784 | 0.858 | 0.871 | 0.887 | 0.865 | 0.894 | 0.887
MDAMB231, 100 µM | 0.801 | 0.819 | 0.763 | 0.768 | 0.757 | 0.764 | 0.734 | 0.745 | 0.752
MDAMB468, 0.1 µM | 0.8955 | 0.825 | 0.742 | 0.673 | 0.6294 | 0.608 | 0.576 | 0.548 | 0.54
MDAMB468, 1 µM | 0.911 | 0.856 | 0.825 | 0.75 | 0.721 | 0.702 | 0.671 | 0.64 | 0.625
MDAMB468, 10 µM | 0.9096 | 0.85 | 0.8097 | 0.7589 | 0.7289 | 0.72412 | 0.6997 | 0.6867 | 0.6788
MDAMB468, 100 µM | 0.94 | 0.926 | 0.875 | 0.796 | 0.723 | 0.683 | 0.62 | 0.5797 | 0.564

— the supplement of paper PMC6078165
